# Reference: the supplement of paper PMC11348887
# Structures can show the parent of a compound that is named as a salt. This is one part of the list. Most values lie at the level of the controls, where differences are scatter.
# Test system: hPSC-derived cortical neurons (WA09)
# Assay: nucleus roundness z-score vs screen plate; higher = rounder nuclei (more mature)
# Details: 5 µM; treatment: days 7-14 after plating, readout day 21
row,SMILES,nucleus roundness z-score
1,CC1(C)[C@H](C(=O)O)N2C(=O)C[C@H]2S1(=O)=O [Sulbactam sodium],0.685
2,Cc1cc2c(F)c(Oc3ncnn4cc(OC[C@@H](C)OC(=O)[C@H](C)N)c(C)c34)ccc2[nH]1,1.55
3,CC(C)(C)C(=O)OCOP(=O)(COCCn1cnc2c(N)ncnc21)OCOC(=O)C(C)(C)C [Adefovir Dipivoxil],-6.98
4,COC(=O)CC[C@H](NC(=O)[C@H](CC(=O)OC)NC(=O)OCc1ccccc1)C(=O)N[C@H](C(=O)N[C@@H](CC(=O)OC)C(=O)CF)C(C)C,1.2
5,CCCC1O[C@@H]2C[C@H]3[C@@H]4CCC5=CC(=O)C=C[C@]5(C)[C@H]4[C@@H](O)C[C@]3(C)[C@]2(C(=O)CO)O1 (stereo partly drawn) [Budesonide],0.53
6,CCOC(=O)[C@H](CCc1ccccc1)N[C@H]1CS[C@H](c2cccs2)CN(CC(=O)O)C1=O [Temocapril HCl],0.0282
7,CN1CCC[C@@H]1CCO[C@](C)(c1ccccc1)c1ccc(Cl)cc1 [Clemastine Fumarate],-0.928
8,CN(CCOc1ccc(CC2SC(=O)NC2=O)cc1)c1ccccn1 (stereo not drawn) [Rosiglitazone maleate],-0.667
9,Brc1ccc([C@H]2CN3CCSC3=N2)cc1 [(-)-p-Bromotetramisole Oxalate],0.0172
10,O=c1[nH]cnc2c1ncn2[C@@H]1O[C@H](CO)[C@@H](O)[C@H]1O [Inosine],0.392
11,C=CC(=O)Nc1cc(Nc2nccc(-c3c[nH]c4ccccc34)n2)c(OC)cc1N(C)CCN(C)C,-3.59
12,CN1C2CCCC1CC(NC(=O)c1nn(C)c3ccccc13)C2 (stereo not drawn) [Granisetron HCl],1.55
13,CCN(Cc1ccncc1)C(=O)C(CO)c1ccccc1 (stereo not drawn) [Tropicamide],0.0845
14,COC(=O)N(C)c1c(N)nc(-c2nn(Cc3ccccc3F)c3ncccc23)nc1N [Riociguat (BAY 63-2521)],0.613
15,COC(=O)Nc1ccc(-c2nc(N3CCOCC3)c3cnn(C4CCN(C(=O)OC)CC4)c3n2)cc1,-0.781
16,O=C(NC[C@H](O)CN1CCc2ccccc2C1)c1ccnc(NC2CCC2)c1,-0.363
17,O=c1cc(N2CCOCC2)oc2c(-c3cccc4c3sc3ccccc34)cccc12,-0.145

# Individual results from above.
# Entry for COC(=O)CC[C@H](NC(=O)[C@H](CC(=O)OC)NC(=O)OCc1ccccc1)C(=O)N[C@H](C(=O)N[C@@H](CC(=O)OC)C(=O)CF)C(C)C under nucleus roundness z-score: 1.2
# Entry for Cc1cc2c(F)c(Oc3ncnn4cc(OC[C@@H](C)OC(=O)[C@H](C)N)c(C)c34)ccc2[nH]1 under nucleus roundness z-score: 1.55

# (more compounds)

row,SMILES,nucleus roundness z-score
1,CC[C@]1(O)C[C@H]2CN(CCc3c([nH]c4ccccc34)[C@@](C(=O)OC)(c3cc4c(cc3OC)N(C=O)[C@H]3[C@@](O)(C(=O)OC)[C@H](OC(C)=O)[C@]5(CC)C=CCN6CC[C@]43[C@@H]65)C2)C1 [Vincristine],0.0125
2,CC(=O)N[C@@H](CS)C(=O)O [Acetylcysteine],0.839
3,CN(C)CCCN1c2ccccc2Sc2ccc(Cl)cc21 [Chlorpromazine HCl],-2.18
4,O=C1C2CC3CC1CC(O)(C3)C2 [Idramantone],0.251
5,CCOC(=O)c1ccc(OC(=O)CCCCCNC(=N)N)cc1 [Gabexate Mesylate],-3.16
6,COC(=O)N[C@@H](C)CNc1nccc(-c2cn(C(C)C)nc2-c2cc(Cl)cc(NS(C)(=O)=O)c2F)n1,-2.33
7,COC(=O)c1ccc2c(c1)NC(=O)/C2=C(\Nc1ccc(N(C)C(=O)CN2CCN(C)CC2)cc1)c1ccccc1 [Nintedanib (BIBF 1120)],0.677
8,COc1cc2nc(N3CCN(C(=O)c4ccco4)CC3)nc(N)c2cc1OC [Prazosin HCl],0.465
9,O=C(O)c1ccc(CN2CCC(CN[C@@H]3C[C@H]3c3ccccc3)CC2)cc1,0.452
10,C[C@]12CC[C@@H]3c4ccc(O)cc4CC[C@H]3[C@@H]1CCC2=O [Estrone],1.4
11,CO[C@H]1C[C@@H]2CC[C@@H](C)[C@@](O)(O2)C(=O)C(=O)N2CCCC[C@H]2C(=O)O[C@H]([C@H](C)C[C@@H]2CC[C@@H](OC(=O)C(C)(CO)CO)[C@H](OC)C2)CC(=O)[C@H](C)/C=C(\C)[C@@H](O)[C@@H](OC)C(=O)[C@H](C)C[C@H](C)/C=C/C=C/C=C/1C,0.801
12,O=c1c(O)c(-c2ccc(O)cc2O)oc2cc(O)cc(O)c12 [Morin Hydrate],-0.132
13,N=C1NC(=O)/C(=C/c2ccc(O)cc2)S1 [Mirin],0.982
14,COc1ccc(-c2ccc3c(N4CCOCC4)nc(N4C[C@@H](C)O[C@@H](C)C4)nc3n2)cc1CO,0.0178
15,COc1cc2ncnc(Nc3ccc(F)c(Cl)c3)c2cc1NC(=O)/C=C/CN1CCCCC1,0.673
16,C=CC(=O)Nc1ccc2ncnc(Nc3cccc(Br)c3)c2c1,-0.741
